# From patent US11730705B2, “Small molecule CMKLR1 antagonists in inflammatory disease” (The Board of Trustees of the Leland Stanford Junior …, priority 2019, dated 2023)
# For at least one compound, name, drawing or mass did not settle the structure.
# Test system: IMQ-induced psoriasis in mice
# Test: IMQ-induced psoriasis model
# Assay type: in vivo
# Conditions: days 1-4 post-IMQ; 200 ug/mouse 1 h prior to IMQ
# Protocol: FIG. 11A-11G. […] Representative images of the same mouse shown over time. […] Mice were treated twice daily with IMQ±dexamethasone (DEX, 200 ug/mouse) 1 h prior to IMQ treatment. […] (FIG. 11G) NK cell (CD45+DX5+CD11b-CD3-CD19-) infiltration into lesional or non-lesional adjacent skin was determined by flow cytometry (6 day timepoint) for IMQ-treated WT and chemerin KO mice. mean±SEM, n=4 mice per genotype, ***p<0.005 by 2-tailed t-test; **p<0.01 by 2-tailed t-test; *p<0.05 by 1-tailed t-test.
# FIG. 13A-13D. […] Fold change with respect to day 0 measurements are shown. […] For A-C, n=3 untreated, n=5 IMQ-treated mice of each genotype, mean±SEM, *p<0.05 by 2-tailed t-test.
# FIG. 15A-15D. […] IC50 values were determined based on 6-point dose-response curves for each compound. (FIG. 15A) α-NETA. […] (FIG. 15A-15C) mean±SEM, n=3-18 independent experiments. […] 0.2 ml each compound (in 10% captisol) or vehicle control was administered by oral gavage beginning one day prior to psoriasis induction. Back skin thickness was measured daily and normalized to day 0. mean±SEM, n=10 mice for vehicle and α-NETA groups pooled from two independent trials; n=3 mice for (27) and (6) from one trial.
smiles,measurement,value
"C[C@@H]1C[C@H]2[C@@H]3CCC4=CC(=O)C=C[C@]4(C)[C@@]3(F)[C@@H](O)C[C@]2(C)[C@@]1(O)C(=O)CO [dexamethasone, reference compound]",inhibition of acanthosis,completely inhibited
